This passage reports binding results from PMC13193366.

Assay [1] deals with T1, RFP-ARR2 (35Spro::RFP-ARR2) (Arabidopsis thaliana) (UniProt Q9ZWJ9).
T1 sequence: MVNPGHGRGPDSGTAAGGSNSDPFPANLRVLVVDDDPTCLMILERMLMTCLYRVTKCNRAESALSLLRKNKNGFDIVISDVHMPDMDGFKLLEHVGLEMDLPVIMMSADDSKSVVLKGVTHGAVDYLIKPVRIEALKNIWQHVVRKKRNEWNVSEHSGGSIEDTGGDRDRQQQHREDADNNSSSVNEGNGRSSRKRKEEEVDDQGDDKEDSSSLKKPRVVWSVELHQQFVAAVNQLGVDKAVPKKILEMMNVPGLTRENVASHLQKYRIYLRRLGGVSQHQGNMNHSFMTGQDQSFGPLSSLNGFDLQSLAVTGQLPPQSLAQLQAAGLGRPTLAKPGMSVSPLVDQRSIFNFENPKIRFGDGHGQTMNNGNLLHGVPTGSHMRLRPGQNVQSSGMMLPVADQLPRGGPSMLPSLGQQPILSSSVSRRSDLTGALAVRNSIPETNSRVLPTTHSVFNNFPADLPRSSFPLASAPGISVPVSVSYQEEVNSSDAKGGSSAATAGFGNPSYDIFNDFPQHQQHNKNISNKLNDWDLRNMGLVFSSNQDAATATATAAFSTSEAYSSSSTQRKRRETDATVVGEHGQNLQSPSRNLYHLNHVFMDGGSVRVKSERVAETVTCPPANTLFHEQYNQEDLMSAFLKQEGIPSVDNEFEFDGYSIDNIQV
Description: FRET or BRET; FLIM-FRET: GFP fluorescence lifetime in nuclei of Nicotiana tabacum leaf epidermal cells co-expressing GFP- and mCherry/RFP-tagged proteins; measured within nuclear speckles (AtPWO1, SmPWOa) or in the nucleolus (SmPWOb). A general note: BRET reads energy transfer from a luciferase to a nearby fluorophore.

Assay [2] has as its target T2, RFP-ARR1 (35Spro::RFP-ARR1; ARABIDOPSIS RESPONSE REGULATOR1) (Arabidopsis thaliana) (UniProt Q940D0).
T2 sequence: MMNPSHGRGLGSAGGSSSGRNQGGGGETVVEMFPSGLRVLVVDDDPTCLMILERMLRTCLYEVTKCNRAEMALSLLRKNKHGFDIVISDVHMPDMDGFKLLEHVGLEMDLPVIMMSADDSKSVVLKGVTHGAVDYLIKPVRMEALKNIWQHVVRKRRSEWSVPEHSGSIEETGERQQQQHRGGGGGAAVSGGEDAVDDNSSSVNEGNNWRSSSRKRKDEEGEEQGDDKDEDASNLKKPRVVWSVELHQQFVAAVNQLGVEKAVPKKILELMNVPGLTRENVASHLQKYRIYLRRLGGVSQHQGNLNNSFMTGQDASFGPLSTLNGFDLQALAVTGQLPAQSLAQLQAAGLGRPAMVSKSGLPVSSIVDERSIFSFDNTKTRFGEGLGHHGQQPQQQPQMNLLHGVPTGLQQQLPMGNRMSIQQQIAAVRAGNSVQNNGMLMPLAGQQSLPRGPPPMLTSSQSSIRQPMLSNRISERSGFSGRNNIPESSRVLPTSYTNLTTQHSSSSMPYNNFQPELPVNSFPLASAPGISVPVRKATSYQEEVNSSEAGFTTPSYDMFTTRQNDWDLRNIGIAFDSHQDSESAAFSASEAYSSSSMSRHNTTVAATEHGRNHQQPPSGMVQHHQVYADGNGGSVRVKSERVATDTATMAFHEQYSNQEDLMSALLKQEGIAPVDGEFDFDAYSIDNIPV
The assay is described as above.

In assay [3] the target is T3, PpCLF-mCherry (i35Spro::PpCLF-mCherry) (Physcomitrium patens) (UniProt C0STZ0).
T3 sequence: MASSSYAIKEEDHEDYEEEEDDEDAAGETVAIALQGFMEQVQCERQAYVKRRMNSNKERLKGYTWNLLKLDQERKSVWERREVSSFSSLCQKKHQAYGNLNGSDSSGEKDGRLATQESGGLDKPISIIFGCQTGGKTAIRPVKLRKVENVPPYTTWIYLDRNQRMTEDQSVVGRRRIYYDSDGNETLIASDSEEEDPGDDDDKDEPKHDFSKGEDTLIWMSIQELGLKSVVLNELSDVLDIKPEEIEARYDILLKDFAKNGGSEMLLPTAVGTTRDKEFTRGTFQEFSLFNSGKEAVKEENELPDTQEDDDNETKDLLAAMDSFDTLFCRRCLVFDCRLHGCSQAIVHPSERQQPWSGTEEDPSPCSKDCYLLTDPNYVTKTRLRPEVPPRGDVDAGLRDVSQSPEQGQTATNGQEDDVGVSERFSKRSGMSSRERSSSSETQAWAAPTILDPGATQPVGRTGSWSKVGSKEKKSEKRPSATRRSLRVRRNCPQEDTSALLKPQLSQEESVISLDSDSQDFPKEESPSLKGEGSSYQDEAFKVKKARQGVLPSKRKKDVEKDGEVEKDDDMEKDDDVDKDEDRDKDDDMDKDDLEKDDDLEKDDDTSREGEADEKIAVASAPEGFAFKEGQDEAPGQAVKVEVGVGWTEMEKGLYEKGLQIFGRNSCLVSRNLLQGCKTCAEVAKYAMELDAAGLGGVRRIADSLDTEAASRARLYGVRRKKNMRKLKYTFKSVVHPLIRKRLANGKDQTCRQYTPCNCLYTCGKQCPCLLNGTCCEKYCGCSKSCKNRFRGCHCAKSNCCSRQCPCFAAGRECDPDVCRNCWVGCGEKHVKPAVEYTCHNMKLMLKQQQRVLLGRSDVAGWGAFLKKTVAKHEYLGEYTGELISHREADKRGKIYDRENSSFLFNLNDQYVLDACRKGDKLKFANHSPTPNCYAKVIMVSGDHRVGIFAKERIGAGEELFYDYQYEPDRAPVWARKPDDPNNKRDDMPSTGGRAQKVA
The description is as above.

In assay [4] the target is T4, PpCLF (Physcomitrium patens CLF), yeast two-hybrid fusion (Physcomitrium patens) (UniProt C0STZ0).
T4 sequence: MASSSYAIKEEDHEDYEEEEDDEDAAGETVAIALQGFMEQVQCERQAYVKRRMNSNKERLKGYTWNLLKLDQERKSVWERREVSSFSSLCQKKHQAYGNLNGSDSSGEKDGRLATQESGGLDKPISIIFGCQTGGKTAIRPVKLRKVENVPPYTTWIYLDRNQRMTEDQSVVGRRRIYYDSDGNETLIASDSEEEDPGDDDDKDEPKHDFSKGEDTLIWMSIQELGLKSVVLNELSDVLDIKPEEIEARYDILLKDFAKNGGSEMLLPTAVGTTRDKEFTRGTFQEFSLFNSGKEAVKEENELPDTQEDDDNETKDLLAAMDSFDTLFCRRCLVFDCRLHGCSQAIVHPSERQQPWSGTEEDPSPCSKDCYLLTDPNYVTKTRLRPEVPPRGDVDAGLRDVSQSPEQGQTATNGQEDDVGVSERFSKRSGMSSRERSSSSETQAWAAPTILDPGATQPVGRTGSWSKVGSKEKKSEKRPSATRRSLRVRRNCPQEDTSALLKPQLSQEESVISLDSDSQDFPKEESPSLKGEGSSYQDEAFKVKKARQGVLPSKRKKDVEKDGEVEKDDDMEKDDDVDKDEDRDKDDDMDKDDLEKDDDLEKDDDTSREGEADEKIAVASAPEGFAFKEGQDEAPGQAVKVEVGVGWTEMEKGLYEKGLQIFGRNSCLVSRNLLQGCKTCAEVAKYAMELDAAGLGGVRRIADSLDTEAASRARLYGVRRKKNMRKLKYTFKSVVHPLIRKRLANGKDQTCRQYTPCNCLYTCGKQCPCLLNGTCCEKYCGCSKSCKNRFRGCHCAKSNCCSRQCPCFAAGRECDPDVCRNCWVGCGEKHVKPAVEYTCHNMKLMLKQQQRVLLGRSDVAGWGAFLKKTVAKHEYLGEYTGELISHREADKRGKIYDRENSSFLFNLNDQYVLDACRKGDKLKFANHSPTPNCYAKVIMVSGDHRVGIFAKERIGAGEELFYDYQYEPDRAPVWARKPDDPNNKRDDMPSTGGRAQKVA
Description: two-hybrid; S. cerevisiae AH109, Gal4-AD and Gal4-BD constructs co-transformed; growth on high stringency selective medium (SD -Leu -Trp -Ade -His; -LWAH), 30°C.

Assay [5] has as its target T4, PpCLF (Physcomitrium patens CLF), yeast two-hybrid fusion (Physcomitrium patens). The assay is described as follows: two-hybrid; S. cerevisiae AH109; growth on low stringency selective medium (SD -Trp -Leu +Ade -His; -LWH).
Assay [6] has as its target AtSWNΔSET (SWINGER with the SET domain deleted), yeast two-hybrid fusion (pGBKT7) (Arabidopsis thaliana). The assay is described as follows: two-hybrid; S. cerevisiae AH109, Gal4-AD and Gal4-BD constructs co-transformed; growth on high stringency selective medium (SD -Leu -Trp -Ade -His; -LWAH), 30°C.
For assay [7], the target named is AtCLFΔSET (CURLY LEAF with the SET domain deleted), yeast two-hybrid fusion (pGBKT7) (Arabidopsis thaliana). The description is as above.
In assay [8] the target is SmCLF (Selaginella moellendorffii CLF), yeast two-hybrid fusion (Selaginella moellendorffii). The assay is described as above.
For assay [9], the target named is AtSWNΔSET (SWINGER with the SET domain deleted), yeast two-hybrid fusion (pGBKT7) (Arabidopsis thaliana). Description: two-hybrid; yeast two-hybrid of AtPWO2 (Fig. S12C); selection medium not told for this experiment.
Assay [10] addresses AtCLFΔSET (CURLY LEAF with the SET domain deleted), yeast two-hybrid fusion (pGBKT7) (Arabidopsis thaliana). The assay is described as above.
Assay [11] concerns the target SmCLF (Selaginella moellendorffii CLF), yeast two-hybrid fusion (Selaginella moellendorffii). Described as above.

No constants are given. Whether binding was seen depends on the method and setting. For part of these data: A result given as binding can be weak or reduced; the word gives no strength. For part of these data: Tags and fused reporters may be left off the sequences shown. For part of these data: Binding seen in cells or lysates may run through a third protein.

With “GFP-SmPWOa (i35Spro::GFP-SmPWOa) (Selaginella moellendorffii)”, the binding entry in assay [1] is reported as “no binding”; in assay [2] it was “no binding”; in assay [3] it was “binds”.

For “GFP-SmPWOb (i35Spro::GFP-SmPWOb) (Selaginella moellendorffii)”, the binding result in assay [1], in [2] and in assay [3] was “no binding” throughout.

Turning to “SmPWOa (Selaginella moellendorffii PWO ortholog a), yeast two-hybrid fusion”, the binding result in assay [4] was “binds”.

In the case of “SmPWOa-ΔC-motif (Δ594–612 aa), yeast two-hybrid fusion (Selaginella moellendorffii)”, the binding entry in assay [4] was “binds”.

Consider “SmPWOb (Selaginella moellendorffii PWO ortholog b), yeast two-hybrid fusion”, for which the binding entry in assay [5] was “binds weakly”.

B1: AtPWO1 (PWWP-DOMAIN INTERACTOR OF POLYCOMBS 1), yeast two-hybrid fusion (protein, UniProt Q9M9N3 1-769)
chain: MASPGSGAVDWTVGSIVWVRRRNGSWWPGRILGQEDLDSTHITSPRSGTPVKLLGREDASVDWYNLEKSKRVKPFRCGDFDECIERVESSQAMIIKKREKYARREDAILHALELEKEMLKREGKLVPEKARDDSLDATKERMAIVRVQDTSNGTRESTDYLRTNHVGDVMHLLRDKEEDQPSCEDEAVPRMRGLQDFGLRTASSKRKISCSNGPDTSFKYLARSNSSASSSGDHSMERPIYTLGKEKTKSRAEAKRTKYMFTPSESNDVSDLHENLLSHRDAMHSSFAGGDTRYSDYDPPNFLEDMESDYSESETDSSDMEEDTDDDIPLLSGAGRHSERRNTFSRHTSGEDESTSSEEDHYESSISGDSSYLYSQNPNNEASTVSNWQHKGKRNFRTLPRRSARKRKLHRNRLEDGRYCEYKRRAFGQKPMGYGLDFNGINDMSDGTDDTDPNERQFGDRMIVPGDDYQLSNVVASRCKNIYSHDMLDWDDDPWEGRIGMKKRGEEKLEGLGQEFDVSERHFGRKTYSSLMDVDLEVRGSYQKGPVPIVSLMSKLNGRAIIGHPVEVEVLADGSSESYIQTIDYFGNETTYQDKTFLLPSAWKTARRSNSRVPRLQPFSSSVEADDDATYDYSLADQGRKPLVKKLGLGHFSNDDNSVRRNSSLRIPRPPAERKQQHQQQQKKLLKNTNATASQKTRALSSFSGEQGHNGMKASRDRTHELSNRRVLPGPPTVACIPVKLVYSRLLEKINRPPSKPTAKAFNERRRVQ
B1: the binding entry in assay [6] is “binds”; in [7], “binds weakly”; in assay [8], “no binding”.

B2: AtPWO2, yeast two-hybrid fusion (protein, UniProt P59278 1-597)
chain: MESNDDRNLEAINASVGRLVWVRRRNGSWWPGQTLVHDQVPDNSLVGPKVGTPIKLLGRDDVSVDWYILENSKTVKAFRCGEYDTCIEKAKASSSKKRSGKCTLREDAINNALKIENEHLAKEDDNLCNLSGEEDSKRCLSGKEDEDSGSSDAEETEDDELASAPEQLQSSISSQEMNNVGASKVQSKRRRTPNDSEDDGTEGVKRMRGLEDIGKEQAGGIVEHKQDLDLICAVGLSDSVSNGNTIANGNKVCSPSSLKRNVSECSKRKNRRRQLTKVLESTAMVSVPVTCDQGVSLDCQGIYDSKVSGMESVESMKSVSVVINNNSDSTGVSCEDAYENVVGASHNNKAKDSEISSISVSAEDDSSDRLFDVPLTGEENHSEGFPAACRISSPRKALVTDLTRRCGRNSHNVFVKNEASNGSACTSPPASEPVNCILSGIEKNTSKWQLKGKRNSRQMSKKQEERRNVYGEEANNNSSTPHSTLYEVKIEVKASYTKPRVPLVSRMSELSGKAIVGHPLSVEILEEDYSNGMVMPPVVAKAKSLPKKNGKKQTTEKAKETVVACIPLKVVFSRINEVLKGSARQTQHRALPSAAKT
Take B2: the binding entry in [9], in assay [10] and in assay [11] was “no binding” each time.
